Values from PubChem BioAssay AID1259425 (University of Nebraska Medical Center, 2018)

Aim: 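Seek colon cancer weak points whose silencing resembles KSR1 loss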 (primary screen)
Cells: HCT116 human colon cancer cells
Reagent: siRNA pool against human genes, 50 nM siRNA
Detection: 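After 50 nM siRNA pool, branched-DNA assay measures six marker transcripts per well, minus blank, normalised to the geometric mean of two housekeeping transcripts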
Scale: BNIP3L mRNA: higher = more BNIP3L transcript after knockdown; NDRG1 mRNA: higher = more NDRG1 transcript after knockdown
In all, the deposit lists about 14,000 reagents; shown is an unselected part. Further read-outs or replicates are left out here. Not given: the time to read-out.

For EFEMP1, the entry reads BNIP3L mRNA, set 1 = 0.117; NDRG1 mRNA, set 1 = 0.182.
For PYCR1, the entry reads BNIP3L mRNA, set 1 = 0.141; NDRG1 mRNA, set 1 = 0.207.
Against SDF2L1 the deposit lists BNIP3L mRNA, set 1 = 0.0653; NDRG1 mRNA, set 1 = 0.321.
SLC24A1 scored BNIP3L mRNA, set 1 = 0.087; NDRG1 mRNA, set 1 = 0.0809.
With knock-down of TNFRSF21 the results were BNIP3L mRNA, set 1 = 0.0822; NDRG1 mRNA, set 1 = 0.202.
Silencing of PIBF1 gave: BNIP3L mRNA, set 1 = 0.135; NDRG1 mRNA, set 1 = 0.079.
MFGE8 scored BNIP3L mRNA, set 1 = 0.101; NDRG1 mRNA, set 1 = 0.155.
MYRIP gave BNIP3L mRNA, set 1 = 0.0496; NDRG1 mRNA, set 1 = 0.15.
Silencing of UBE2S came out at: BNIP3L mRNA, set 1 = 0.149; NDRG1 mRNA, set 1 = 0.261.
Depletion of NUCB2 came out at: BNIP3L mRNA, set 1 = 0.0757; NDRG1 mRNA, set 1 = 0.195.
Against YPEL1, the values are BNIP3L mRNA, set 1 = 0.131; NDRG1 mRNA, set 1 = 0.165.
MKNK1 scored BNIP3L mRNA, set 1 = 0.144; NDRG1 mRNA, set 1 = 0.0672.
Silencing of NEU3 gave: BNIP3L mRNA, set 1 = 0.0675; NDRG1 mRNA, set 1 = 0.0659.
Silencing of PCYT2 came out at: BNIP3L mRNA, set 1 = 0.15; NDRG1 mRNA, set 1 = 0.142.
Depletion of CYB561 resulted in: BNIP3L mRNA, set 1 = 0.0947; NDRG1 mRNA, set 1 = 0.234.
Knock-down of ARMCX1 resulted in: BNIP3L mRNA, set 1 = 0.129; NDRG1 mRNA, set 1 = 0.0587.
NAA35 showed BNIP3L mRNA, set 1 = 0.0673; NDRG1 mRNA, set 1 = 0.15.
After knock-down of BBLN, the record shows BNIP3L mRNA, set 1 = 0.089; NDRG1 mRNA, set 1 = 0.205.
Depletion of MYOZ2 came out at: BNIP3L mRNA, set 1 = 0.0469; NDRG1 mRNA, set 1 = 0.435.

4 entries from above, ordered by “BNIP3L mRNA, set 1”, highest first.
PYCR1: BNIP3L mRNA, set 1 = 0.141; NDRG1 mRNA, set 1 = 0.207
SLC24A1: BNIP3L mRNA, set 1 = 0.087; NDRG1 mRNA, set 1 = 0.0809
TNFRSF21: BNIP3L mRNA, set 1 = 0.0822; NDRG1 mRNA, set 1 = 0.202
SDF2L1: BNIP3L mRNA, set 1 = 0.0653; NDRG1 mRNA, set 1 = 0.321

More results follow:
For RGN, the entry reads BNIP3L mRNA, set 1 = 0.148; NDRG1 mRNA, set 1 = 0.296.
Against SIRT6 the deposit lists BNIP3L mRNA, set 1 = 0.0879; NDRG1 mRNA, set 1 = 0.3.
After knock-down of DGLUCY the results were BNIP3L mRNA, set 1 = 0.0923; NDRG1 mRNA, set 1 = 0.201.
With knock-down of DESI1, the screen gave BNIP3L mRNA, set 1 = 0.184; NDRG1 mRNA, set 1 = 0.113.
After knock-down of ENPP3, the screen gave BNIP3L mRNA, set 1 = 0.0728; NDRG1 mRNA, set 1 = 0.278.
With knock-down of VHL, the screen gave BNIP3L mRNA, set 1 = 0.0682; NDRG1 mRNA, set 1 = 0.166.
GNS showed BNIP3L mRNA, set 1 = 0.105; NDRG1 mRNA, set 1 = 0.225.
Silencing of LILRB2 gave: BNIP3L mRNA, set 1 = 0.0907; NDRG1 mRNA, set 1 = 0.114.
Against FOXRED1, the entry reads BNIP3L mRNA, set 1 = 0.139; NDRG1 mRNA, set 1 = 0.31.
After knock-down of HERPUD2, the record shows BNIP3L mRNA, set 1 = 0.133; NDRG1 mRNA, set 1 = 0.309.
With knock-down of UGT2B15, the screen gave BNIP3L mRNA, set 1 = 0.0835; NDRG1 mRNA, set 1 = 0.121.
With knock-down of NAA15 the results were BNIP3L mRNA, set 1 = 0.123; NDRG1 mRNA, set 1 = 0.0962.
After knock-down of DIO3, the record shows BNIP3L mRNA, set 1 = 0.0863; NDRG1 mRNA, set 1 = 0.277.
After knock-down of NME3 the results were BNIP3L mRNA, set 1 = 0.0948; NDRG1 mRNA, set 1 = 0.0902.
For RRAGA, the values are BNIP3L mRNA, set 1 = 0.124; NDRG1 mRNA, set 1 = 0.468.
NDUFB6 showed BNIP3L mRNA, set 1 = 0.123; NDRG1 mRNA, set 1 = 0.704.
Knock-down of GARIN1B resulted in: BNIP3L mRNA, set 1 = 0.18; NDRG1 mRNA, set 1 = 0.389.
